Non-standard residues stand in square brackets, D forms with d. Phe(4-CF3) = N[C@@H](Cc1ccc(C(F)(F)F)cc1)C(=O)O; 1Nal = N[C@@H](Cc1cccc2ccccc12)C(=O)O; 2Nal = N[C@@H](Cc1ccc2ccccc2c1)C(=O)O; dCit = NC(=O)NCCC[C@@H](N)C(=O)O; hArg = N=C(N)NCCCC[C@H](N)C(=O)O; dTic = O=C(O)[C@H]1Cc2ccccc2CN1; Cha = N[C@@H](CC1CCCCC1)C(=O)O; aThr = C[C@H](O)[C@H](N)C(=O)O; Agb = N=C(N)NCC[C@H](N)C(=O)O; Agp = N=C(N)NC[C@H](N)C(=O)O; Chg = N[C@H](C(=O)O)C1CCCCC1; dOrn = NCCC[C@@H](N)C(=O)O; dDab = NCC[C@@H](N)C(=O)O; hSer = N[C@@H](CCO)C(=O)O; Nle = CCCC[C@H](N)C(=O)O; Orn = NCCC[C@H](N)C(=O)O; Dab = NCC[C@H](N)C(=O)O; Abu = CC[C@H](N)C(=O)O

This data set in a line: general procedure: Fmoc solid-phase peptide synthesis; 2-chlorotrityl resin (preloaded Fmoc-amino acid). The conditions noted are these: whole synthesis, %-purity after prep. HPLC, analytical methods A-D.
Take “cyclo(-1Nal-^DArg-Arg-Trp-^DPro-Pro((3S)OH)—)”: the “final purity (method not given)” value is 86%.

In the case of “cyclo(-3Pal-^DPhe-Trp-Arg-^DPro((4R)NH2)-Tic-)”, the “final purity (method not given)” value was 95%.

With “cyclo(-Agb-^DPhe-Trp-Arg-^DPro((4R)NH2)-Tic-)”, the “final purity (method not given)” value worked out at 96%.

Consider “cyclo(-Ala(1Pyraz)-^DPhe-Trp-Arg-^DPro((4R)NH2)-Tic-)”, for which the “final purity (method not given)” value came out at 97%.

Take “cyclo(-Ala(Tet)-^DPhe-Trp-Arg-^DPro((4R)NH2)-Tic-)”: the “final purity (method not given)” value is reported as 94%.

In the case of “cyclo(-Ala-^DPhe-Trp-Arg-^DPro((4R)NH2)-Tic-)”, the “final purity (method not given)” value came to 94%.

Take “cyclo(-Arg-^DPhe-Trp-Arg-^DPro((4R)NH2)-Oic-)”: the “final purity (method not given)” value worked out at 91%.

For “cyclo(-Arg-^DPhe-Trp-Arg-^DPro((4R)NH2)-Tic-)”, the “final purity (method not given)” value is listed as 92%.

Consider “cyclo(-Arg-^DPhe-Trp-Arg-^DPro((4S)NH2)-Tic-)”, for which the “final purity (method not given)” value is given as 93%.

As for “cyclo(-Arg-^DPhe-Trp-Arg-^DPro-(4S)-Hyp(Bn)-)”, the “final purity (method not given)” value is on record as 91%.

With “cyclo(-Arg-^DPhe-Trp-hArg-^DPro((4R)N H2)-Tic-)”, the “final purity (method not given)” value amounted to 88%.

Consider “cyclo(-His-^DTrp-His-Trp-^DPro-Pro((4S)NHBz)-)”, for which the “final purity (method not given)” value is 95%.

On to “cyclo(-Ile-^DArg-Arg-2Nal-^DPro-Pro((3S)OH)—)”, for which the “final purity (method not given)” value is given as 91%.

With “cyclo(-Ile-^DArg-Arg-Trp-^DPip-Pro((3S)OH)—)”, the “final purity (method not given)” value turned out to be 92%.

In the case of cyclo(-Ile-^DArg-Arg-Trp-^DPip-Thr-), the “final purity (method not given)” value came out at 98%.

For the substance “cyclo(-Ile-^DArg-Arg-Trp-^DPro((4R)NH2)-Thr-)”, the “final purity (method not given)” value amounted to 72%.

In the case of “cyclo(-Ile-^DArg-Arg-Trp-^DPro((4S)OH)-Thr-)”, the “final purity (method not given)” value amounted to 85%.

With cyclo(-Ile-^DArg-Arg-Trp-^DPro-Mor-), the “final purity (method not given)” value was 74%.

For the substance “cyclo(-Ile-^DArg-Arg-Trp-^DPro-Pro((3S)OH)—)”, the “final purity (method not given)” value came to 98%.

For the substance “cyclo(-Ile-^DArg-Orn(A41)-Trp-^DPro-Thr-)”, the “final purity (method not given)” value stood at 93%.

On to “cyclo(-Ile-^DArg-Orn(A56)-Trp-^DPro-Thr-)”, for which the “final purity (method not given)” value is recorded as 95%.

“cyclo(-Ile-^DArg-Orn(Ar2)-Trp-^DPro-Thr-)”: the “final purity (method not given)” value worked out at 93%.

For “cyclo(-Ile-^DArg-Orn(Ar4)-Trp-^DPro-Thr-)”, the “final purity (method not given)” value was 84%.

On to “cyclo(-Ile-^DArg-Orn(Ar7)-Trp-^DPro-Thr-)”, for which the “final purity (method not given)” value is given as 97%.

With “cyclo(-Orn(A56)-^DPhe-Trp-Arg-^DPro((4R)NH2)-Tic-)”, the “final purity (method not given)” value came to 96%.

As to “cyclo(-Orn(Ar2)-^DPhe-Trp-Arg-^DPro((4R)NH2)-Tic-)”, the “final purity (method not given)” value is recorded as 90%.

“cyclo(-Pip-^DPhe-Trp-Arg-^DPro((4R)NH2)-Tic-)”: the “final purity (method not given)” value is 92%.

For the substance “cyclo(-Trp-^D3Pal-Trp-Arg-^DPro((4R)NH2)-Tic-)”, the “final purity (method not given)” value is 80%.

As for “cyclo(-Trp-^DPhe-Trp-Arg-^DPro((4R)NH2)-(4S)-Hyp(Bn)-)”, the “final purity (method not given)” value was 86%.

With “cyclo(-Trp-^DPhe-Trp-Arg-^DPro((4R)NH2)-Oic-)”, the “final purity (method not given)” value is reported as 94%.

In the case of “cyclo(-Trp-^DPhe-Trp-Arg-^DPro((4R)NH2)-Tic-)”, the “final purity (method not given)” value is on record as 90%.

On to “cyclo(-Trp-^DPhe-Trp-Arg-^DPro((4S)NH2)-Tic-)”, for which the “final purity (method not given)” value is given as 95%.

Take “cyclo(-Trp-^DPhe-Trp-Arg-^DPro((4S)OH)-(4S)-Hyp(Bn)-)”: the “final purity (method not given)” value is recorded as 89%.

In the case of cyclo(-Trp-^DPhe-Trp-Arg-^DPro-Mor-), the “final purity (method not given)” value was determined as 93%.

As for “cyclo(-Trp-^DPhe-Trp-Arg-^DPro-Pro((4R)NH2)—)”, the “final purity (method not given)” value was found to be 95%.

Consider “cyclo(-Trp-^DPhe-Trp-Arg-^DPro-Pro((4S)F)—)”, for which the “final purity (method not given)” value is on record as 96%.

As to “cyclo(-Trp-^DPhe-Trp-Arg-^DPro-Pro((4S)NH2)—)”, the “final purity (method not given)” value was above 98%.

“cyclo(-Trp-^DPhe-Trp-Dab-^DPro((4R)NH2)-Tic-)”: the “final purity (method not given)” value is on record as 89%.

On to “cyclo(-Trp-^DPhe-Trp-His-^DPro((4R)NH2)-Tic-)”, for which the “final purity (method not given)” value is 92%.

As for “cyclo(-Trp-^DPhe-Trp-Lys-^DPro((4R)NH2)-Tic-)”, the “final purity (method not given)” value came to 93%.

Turning to “cyclo(-Trp-^DPhe-Trp-Orn(A56)-^DPip-Pro((3S)OH)—)”, the “final purity (method not given)” value turned out to be 93%.

Turning to “cyclo(-Trp-^DPhe-Trp-Orn(A56)-^DPro((4R)NH2)-Tic-)”, the “final purity (method not given)” value is on record as 93%.

Consider “cyclo(-Trp-^DPhe-Trp-Orn(A56)-^DPro((4R)NH2)-Tiq-)”, for which the “final purity (method not given)” value was determined as 95%.

“cyclo(-Trp-^DPhe-Trp-Orn(Ar7)-^DPro((4R)NH2)-Tic-)”: the “final purity (method not given)” value was 92%.

In the case of “cyclo(-Trp-^DPhe-Trp-Orn-^DPro((4R)NH2)-Tic-)”, the “final purity (method not given)” value is listed as 92%.

With “cyclo(-Tyr-^DPhe-Trp-Arg-^DPro((4R)NH2)-Tic-)”, the “final purity (method not given)” value is 92%.

Turning to “cyclo(-hArg-^DPhe-Trp-Arg-^DPro((4R)NH2)-Tic-)”, the “final purity (method not given)” value came out at 96%.

Consider cyclo(I[dCit]RW[dP]T), for which the “final purity (method not given)” value was 88%.

For the substance cyclo(I[dDab]RW[dP]T), the “final purity (method not given)” value was determined as 94%.

As for cyclo(I[dH]RW[dP]T), the “final purity (method not given)” value was 95%.

As for cyclo(I[dK]RW[dP]T), the “final purity (method not given)” value was 92%.

With cyclo(I[dOrn]RW[dP]T), the “final purity (method not given)” value was 91%.

cyclo(I[dR]KW[dP]T): the “final purity (method not given)” value is above 98%.

Regarding cyclo(I[dR]RF[dP]T), the “final purity (method not given)” value was above 98%.

On to cyclo(I[dR]RI[dP]T), for which the “final purity (method not given)” value came to 97%.

For cyclo(I[dR]RW[dP]S), the “final purity (method not given)” value is listed as 90%.

cyclo(I[dR]RW[dP]T): the “final purity (method not given)” value amounted to 97%.

cyclo(I[dR]RW[dP][aThr]): the “final purity (method not given)” value came out at 97%.

For cyclo(I[dR]RW[dP][hSer]), the “final purity (method not given)” value was 92%.

In the case of cyclo(I[dR]RW[dTic]T), the “final purity (method not given)” value came out at 94%.

Regarding cyclo(I[dR]RY[dP]T), the “final purity (method not given)” value amounted to 98%.

With cyclo(I[dR]R[1Nal][dP]T), the “final purity (method not given)” value worked out at 91%.

As to cyclo(I[dR]R[2Nal][dP]T), the “final purity (method not given)” value is 92%.

Turning to cyclo(I[dR]R[Phe(4-CF3)][dP]T), the “final purity (method not given)” value is given as 97%.

With cyclo(I[dR]WR[dP]T), the “final purity (method not given)” value is 98%.

On to cyclo(I[dR][Agb]W[dP]T), for which the “final purity (method not given)” value came to 98%.

cyclo(I[dR][Agp]W[dP]T): the “final purity (method not given)” value was 87%.

Take cyclo(I[dR][Dab]W[dP]T): the “final purity (method not given)” value is reported as above 98%.

Turning to cyclo(I[dR][Orn]W[dP]T), the “final purity (method not given)” value amounted to 94%.

Regarding cyclo(I[dR][hArg]W[dP]T), the “final purity (method not given)” value is 91%.

In the case of cyclo(I[dT]RW[dP]T), the “final purity (method not given)” value turned out to be 95%.

As for cyclo(L[dR]RW[dP]T), the “final purity (method not given)” value was 96%.

With cyclo(T[dR]WR[dP]T), the “final purity (method not given)” value stood at 95%.

On to cyclo(V[dR]RW[dP]T), for which the “final purity (method not given)” value came out at 88%.

cyclo(W[dR]RW[dP]T): the “final purity (method not given)” value was determined as 95%.

With cyclo([1Nal][dR]RW[dP]T), the “final purity (method not given)” value is recorded as 97%.

Turning to cyclo([Abu][dR]RW[dP]T), the “final purity (method not given)” value came to 81%.

Take cyclo([Cha][dR]RW[dP]T): the “final purity (method not given)” value is 94%.

Consider cyclo([Chg][dR]RW[dP]T), for which the “final purity (method not given)” value is given as 96%.

As to cyclo([Nle][dR]RW[dP]T), the “final purity (method not given)” value amounted to 96%.

(Values after patent publication US9637520B2 (POLYPHOR AG, priority 2010, dated 2017).)
